Measured data: PubChem BioAssay AID1259254 (NCATS, 2017)

Test: 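Genome-wide screen for genes that prevent DNA re-replication in cancer cells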 (primary screen)
Cells: human HCT116 colorectal cancer cells
Reagents: single siRNA against human genes
Time to read-out: 3 days
Read-out: 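Imaged Hoechst DNA stain sorts each cell into a cycle phase by DNA amount; per plate, G2 fraction set to 0% for non-targeting and 100% for GMNN siRNA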
Reading the numbers: G2 robust z-score and G2 cells, % of GMNN control: higher = more G2 cells, more excess DNA replication; raw share of cells in G2: higher = larger share of cells with G2 DNA content
Hit rule: 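An siRNA counts as active if its G2 robust z-score lies at least 5 MADs above the screen median; here such calls match roughly 38% of GMNN control or more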
Here is a random part of about 59,000 reagents. In the full data, about 1,550 (2.6%) were called active. 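G2 share is only a proxy for re-replication; each gene was hit by three separate siRNAs, and active genes were retested.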 The raw values are shown without normalisation. Reagent sequences are not shown. The record does not give: the amount of reagent.

gene symbol,PubChem SID,G2 robust z-score,"G2 cells, % of GMNN control",raw share of cells in G2 (%),Outcome
OCSTAMP (GeneID 128506),SID160732447,2.18,18.3,9.22,inactive
OCSTAMP (GeneID 128506),SID160756773,-0.125,2.09,4.96,inactive
OCSTAMP (GeneID 128506),SID160756774,-0.188,1.65,3.62,inactive
LRP12 (GeneID 29967),SID160739409,0.432,6,8.89,inactive
LRP12 (GeneID 29967),SID160739410,1.75,15.3,8.99,inactive
LRP12 (GeneID 29967),SID160739411,-1.86,-10.1,0.825,inactive
LAMA2 (GeneID 3908),SID160776490,1.09,10.7,7.69,inactive
LAMA2 (GeneID 3908),SID160776491,-0.53,-0.764,4.49,inactive
LAMA2 (GeneID 3908),SID160776492,-0.767,-2.43,2.23,inactive
BRD9 (GeneID 65980),SID160748348,-1.1,-4.74,2.52,inactive
BRD9 (GeneID 65980),SID160748349,-0.359,0.442,4.81,inactive
BRD9 (GeneID 65980),SID160748350,-0.71,-2.03,2.16,inactive
DCUN1D5 (GeneID 84259),SID160751980,2.11,17.8,10,inactive
DCUN1D5 (GeneID 84259),SID160751981,0.056,3.36,4.45,inactive
DCUN1D5 (GeneID 84259),SID160751982,-0.062,2.53,3.17,inactive
EFHD2 (GeneID 79180),SID160731912,-0.154,1.88,4.22,inactive
EFHD2 (GeneID 79180),SID160731913,0.0439,3.28,7.39,inactive
EFHD2 (GeneID 79180),SID160748766,-0.327,0.666,3.03,inactive
YTHDF1 (GeneID 54915),SID160742484,0.338,5.35,5.52,inactive
YTHDF1 (GeneID 54915),SID160742485,0.581,7.06,7.24,inactive
YTHDF1 (GeneID 54915),SID160742486,0.318,5.2,4.91,inactive
STIMATE (GeneID 375346),SID160765422,-1.17,-5.25,1.97,inactive
STIMATE (GeneID 375346),SID160765423,0.777,8.44,7.08,inactive
STIMATE (GeneID 375346),SID160765424,0.329,5.28,6.9,inactive
MRPS17 (GeneID 51373),SID160740703,0.433,6.02,8.68,inactive
MRPS17 (GeneID 51373),SID160740705,0.505,6.52,6.65,inactive
MRPS17 (GeneID 51373),SID160740706,-0.77,-2.45,2.86,inactive
RPP40 (GeneID 10799),SID160729248,-0.613,-1.35,4.46,inactive
RPP40 (GeneID 10799),SID160729249,-0.404,0.125,4.19,inactive
RPP40 (GeneID 10799),SID160729250,-0.251,1.2,3.62,inactive
SAMHD1 (GeneID 25939),SID160737299,-0.388,0.24,4.07,inactive
SAMHD1 (GeneID 25939),SID160737300,0.218,4.5,8.2,inactive
SAMHD1 (GeneID 25939),SID160737301,0.39,5.71,6.08,inactive
DEPDC7 (GeneID 91614),SID160754035,0.893,9.25,8.01,inactive
DEPDC7 (GeneID 91614),SID160754036,-0.307,0.808,3.25,inactive
DEPDC7 (GeneID 91614),SID160754037,-0.679,-1.81,2.35,inactive
SNX9 (GeneID 51429),SID160740794,-0.611,-1.33,2.32,inactive
SNX9 (GeneID 51429),SID160740795,-0.495,-0.518,5.67,inactive
SNX9 (GeneID 51429),SID160740796,-0.102,2.25,4.34,inactive
NTF3 (GeneID 4908),SID160778257,0.849,8.94,8.78,inactive
NTF3 (GeneID 4908),SID160778258,-0.446,-0.167,4.16,inactive
NTF3 (GeneID 4908),SID160778259,0.0622,3.4,4.58,inactive
TTLL8 (GeneID 164714),SID160732610,-0.404,0.124,2.8,inactive
TTLL8 (GeneID 164714),SID160760134,-0.801,-2.67,2.65,inactive
TTLL8 (GeneID 164714),SID160760135,-0.106,2.22,3.7,inactive
FAM43B (GeneID 163933),SID160760085,-1.19,-5.38,1.67,inactive
FAM43B (GeneID 163933),SID160760086,-0.423,-0.0118,2.95,inactive
FAM43B (GeneID 163933),SID160760087,1.36,12.6,6.74,inactive
PPM1E (GeneID 22843),SID160731879,-0.944,-3.67,3.6,inactive
PPM1E (GeneID 22843),SID160731888,-0.314,0.758,4.53,inactive
PPM1E (GeneID 22843),SID160731898,-0.117,2.15,4.14,inactive
MBNL2 (GeneID 10150),SID160726141,-0.0401,2.69,7.54,inactive
MBNL2 (GeneID 10150),SID160726145,0.243,4.68,7.73,inactive
MBNL2 (GeneID 10150),SID160726149,0.0111,3.05,4.83,inactive
ATF5 (GeneID 22809),SID160731398,-0.312,0.77,3.78,inactive
ATF5 (GeneID 22809),SID160731405,1.86,16.1,13.2,inactive
ATF5 (GeneID 22809),SID160731414,-0.19,1.63,4.02,inactive
SOD2 (GeneID 6648),SID160717167,-1,-4.1,4.3,inactive
SOD2 (GeneID 6648),SID160717168,-0.757,-2.36,3.74,inactive
SOD2 (GeneID 6648),SID160717169,0.896,9.27,7.03,inactive
USP38 (GeneID 84640),SID160752497,1.23,11.6,10.5,inactive
USP38 (GeneID 84640),SID160752498,0.553,6.86,6.73,inactive
USP38 (GeneID 84640),SID160752499,0.0517,3.33,5.5,inactive
KCNK3 (GeneID 3777),SID160776216,-1.21,-5.58,3.26,inactive
KCNK3 (GeneID 3777),SID160776217,0.251,4.74,6.38,inactive
KCNK3 (GeneID 3777),SID160776218,0.0782,3.52,5.75,inactive
NPAS3 (GeneID 64067),SID160747394,1.12,10.9,10.2,inactive
NPAS3 (GeneID 64067),SID160747395,1.01,10.1,7.92,inactive
NPAS3 (GeneID 64067),SID160747396,-0.459,-0.265,4.13,inactive
